In PMC12425804:
Results are given in words; binding and its absence hold for the method and conditions named. In cells and extracts the contact can be indirect. Some entries that bind do so weakly or less than the wild type.

Chains of the proteins cited; added tags and fusions are not shown. Lines headed by an entry give the natural chain unless they say otherwise; changes in a name come on top.
UniProt Q3TKT4: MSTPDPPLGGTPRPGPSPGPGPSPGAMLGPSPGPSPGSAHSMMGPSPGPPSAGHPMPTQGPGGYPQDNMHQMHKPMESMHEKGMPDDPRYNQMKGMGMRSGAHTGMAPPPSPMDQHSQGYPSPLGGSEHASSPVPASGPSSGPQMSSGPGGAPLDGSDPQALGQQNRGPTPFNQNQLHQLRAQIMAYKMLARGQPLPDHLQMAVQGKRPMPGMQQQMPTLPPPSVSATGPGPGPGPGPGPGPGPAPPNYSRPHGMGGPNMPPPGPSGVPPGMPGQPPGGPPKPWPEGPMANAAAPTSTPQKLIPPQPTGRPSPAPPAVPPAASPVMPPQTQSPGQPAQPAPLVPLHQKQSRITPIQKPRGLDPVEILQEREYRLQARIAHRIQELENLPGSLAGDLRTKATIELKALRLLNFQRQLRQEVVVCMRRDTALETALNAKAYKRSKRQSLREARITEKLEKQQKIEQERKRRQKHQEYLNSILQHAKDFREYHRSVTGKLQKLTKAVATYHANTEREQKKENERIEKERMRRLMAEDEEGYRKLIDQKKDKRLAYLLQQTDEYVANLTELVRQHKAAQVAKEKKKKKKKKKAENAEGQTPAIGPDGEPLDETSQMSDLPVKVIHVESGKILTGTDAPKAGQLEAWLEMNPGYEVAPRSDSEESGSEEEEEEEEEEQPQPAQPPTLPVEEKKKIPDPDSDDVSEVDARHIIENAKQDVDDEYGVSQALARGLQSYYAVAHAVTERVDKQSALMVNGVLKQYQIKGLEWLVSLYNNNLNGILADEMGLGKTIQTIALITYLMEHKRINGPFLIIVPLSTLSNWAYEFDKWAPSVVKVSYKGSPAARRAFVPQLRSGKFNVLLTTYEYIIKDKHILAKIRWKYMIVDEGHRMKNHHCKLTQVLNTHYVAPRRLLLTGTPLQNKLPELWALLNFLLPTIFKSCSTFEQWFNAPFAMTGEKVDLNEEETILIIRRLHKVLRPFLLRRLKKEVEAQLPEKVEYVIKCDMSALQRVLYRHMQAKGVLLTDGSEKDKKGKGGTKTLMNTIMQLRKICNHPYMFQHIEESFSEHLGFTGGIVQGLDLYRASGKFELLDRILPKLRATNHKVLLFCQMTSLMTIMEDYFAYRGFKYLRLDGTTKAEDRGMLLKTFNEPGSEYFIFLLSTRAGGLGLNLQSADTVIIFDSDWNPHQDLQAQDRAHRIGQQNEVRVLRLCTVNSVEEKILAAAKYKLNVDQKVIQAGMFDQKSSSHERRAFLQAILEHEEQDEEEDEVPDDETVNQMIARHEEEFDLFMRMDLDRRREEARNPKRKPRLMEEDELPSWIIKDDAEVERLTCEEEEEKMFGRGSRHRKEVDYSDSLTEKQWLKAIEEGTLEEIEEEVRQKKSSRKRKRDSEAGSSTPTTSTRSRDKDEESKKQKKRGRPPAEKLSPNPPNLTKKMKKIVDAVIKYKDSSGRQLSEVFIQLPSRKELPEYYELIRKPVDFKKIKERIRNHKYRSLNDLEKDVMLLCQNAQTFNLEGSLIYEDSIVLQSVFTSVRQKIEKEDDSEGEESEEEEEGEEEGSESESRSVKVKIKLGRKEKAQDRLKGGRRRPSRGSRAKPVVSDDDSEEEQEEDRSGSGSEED
UniProt Q8BSQ9: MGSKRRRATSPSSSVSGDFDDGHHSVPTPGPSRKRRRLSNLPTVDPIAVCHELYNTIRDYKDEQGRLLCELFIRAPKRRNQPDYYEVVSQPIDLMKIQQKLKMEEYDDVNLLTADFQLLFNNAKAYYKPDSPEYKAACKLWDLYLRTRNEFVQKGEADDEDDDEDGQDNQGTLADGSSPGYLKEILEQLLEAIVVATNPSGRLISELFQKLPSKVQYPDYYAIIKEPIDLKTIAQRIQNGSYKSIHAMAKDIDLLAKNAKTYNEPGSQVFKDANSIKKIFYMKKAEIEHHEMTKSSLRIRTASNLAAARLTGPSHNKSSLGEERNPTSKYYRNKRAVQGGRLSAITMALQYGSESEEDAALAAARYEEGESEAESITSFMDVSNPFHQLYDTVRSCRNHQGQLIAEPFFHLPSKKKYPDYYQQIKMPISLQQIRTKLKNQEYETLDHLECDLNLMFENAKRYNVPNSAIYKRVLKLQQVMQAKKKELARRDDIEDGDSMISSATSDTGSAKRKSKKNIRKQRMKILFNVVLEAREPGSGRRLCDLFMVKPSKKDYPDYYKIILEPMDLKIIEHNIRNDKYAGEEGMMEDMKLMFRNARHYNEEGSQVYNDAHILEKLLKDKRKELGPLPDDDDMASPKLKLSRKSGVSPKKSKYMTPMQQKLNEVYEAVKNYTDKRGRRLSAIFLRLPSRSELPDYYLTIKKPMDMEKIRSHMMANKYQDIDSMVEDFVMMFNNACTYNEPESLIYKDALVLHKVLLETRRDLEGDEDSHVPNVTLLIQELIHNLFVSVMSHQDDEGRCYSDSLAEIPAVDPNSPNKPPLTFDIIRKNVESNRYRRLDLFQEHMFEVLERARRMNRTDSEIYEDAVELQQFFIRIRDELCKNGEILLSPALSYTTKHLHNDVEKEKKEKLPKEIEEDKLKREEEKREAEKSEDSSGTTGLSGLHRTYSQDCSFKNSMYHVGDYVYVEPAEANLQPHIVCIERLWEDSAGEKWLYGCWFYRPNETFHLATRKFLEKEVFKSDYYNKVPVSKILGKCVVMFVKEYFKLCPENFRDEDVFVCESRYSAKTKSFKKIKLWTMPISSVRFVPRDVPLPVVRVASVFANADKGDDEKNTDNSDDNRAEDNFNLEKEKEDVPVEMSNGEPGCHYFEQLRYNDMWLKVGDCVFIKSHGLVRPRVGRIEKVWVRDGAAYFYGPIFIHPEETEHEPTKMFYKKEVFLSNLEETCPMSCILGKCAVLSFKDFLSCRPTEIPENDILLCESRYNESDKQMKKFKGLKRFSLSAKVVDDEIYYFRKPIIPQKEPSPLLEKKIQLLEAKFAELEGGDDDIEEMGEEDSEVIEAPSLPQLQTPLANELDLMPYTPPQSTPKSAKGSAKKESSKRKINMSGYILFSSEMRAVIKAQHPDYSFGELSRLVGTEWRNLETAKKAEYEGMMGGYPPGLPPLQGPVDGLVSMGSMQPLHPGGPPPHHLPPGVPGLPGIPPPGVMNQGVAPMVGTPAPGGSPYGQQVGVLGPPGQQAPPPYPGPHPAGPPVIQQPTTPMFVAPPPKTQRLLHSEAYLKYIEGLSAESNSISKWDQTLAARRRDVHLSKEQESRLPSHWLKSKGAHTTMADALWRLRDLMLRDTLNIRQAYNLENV
UniProt A2BH40: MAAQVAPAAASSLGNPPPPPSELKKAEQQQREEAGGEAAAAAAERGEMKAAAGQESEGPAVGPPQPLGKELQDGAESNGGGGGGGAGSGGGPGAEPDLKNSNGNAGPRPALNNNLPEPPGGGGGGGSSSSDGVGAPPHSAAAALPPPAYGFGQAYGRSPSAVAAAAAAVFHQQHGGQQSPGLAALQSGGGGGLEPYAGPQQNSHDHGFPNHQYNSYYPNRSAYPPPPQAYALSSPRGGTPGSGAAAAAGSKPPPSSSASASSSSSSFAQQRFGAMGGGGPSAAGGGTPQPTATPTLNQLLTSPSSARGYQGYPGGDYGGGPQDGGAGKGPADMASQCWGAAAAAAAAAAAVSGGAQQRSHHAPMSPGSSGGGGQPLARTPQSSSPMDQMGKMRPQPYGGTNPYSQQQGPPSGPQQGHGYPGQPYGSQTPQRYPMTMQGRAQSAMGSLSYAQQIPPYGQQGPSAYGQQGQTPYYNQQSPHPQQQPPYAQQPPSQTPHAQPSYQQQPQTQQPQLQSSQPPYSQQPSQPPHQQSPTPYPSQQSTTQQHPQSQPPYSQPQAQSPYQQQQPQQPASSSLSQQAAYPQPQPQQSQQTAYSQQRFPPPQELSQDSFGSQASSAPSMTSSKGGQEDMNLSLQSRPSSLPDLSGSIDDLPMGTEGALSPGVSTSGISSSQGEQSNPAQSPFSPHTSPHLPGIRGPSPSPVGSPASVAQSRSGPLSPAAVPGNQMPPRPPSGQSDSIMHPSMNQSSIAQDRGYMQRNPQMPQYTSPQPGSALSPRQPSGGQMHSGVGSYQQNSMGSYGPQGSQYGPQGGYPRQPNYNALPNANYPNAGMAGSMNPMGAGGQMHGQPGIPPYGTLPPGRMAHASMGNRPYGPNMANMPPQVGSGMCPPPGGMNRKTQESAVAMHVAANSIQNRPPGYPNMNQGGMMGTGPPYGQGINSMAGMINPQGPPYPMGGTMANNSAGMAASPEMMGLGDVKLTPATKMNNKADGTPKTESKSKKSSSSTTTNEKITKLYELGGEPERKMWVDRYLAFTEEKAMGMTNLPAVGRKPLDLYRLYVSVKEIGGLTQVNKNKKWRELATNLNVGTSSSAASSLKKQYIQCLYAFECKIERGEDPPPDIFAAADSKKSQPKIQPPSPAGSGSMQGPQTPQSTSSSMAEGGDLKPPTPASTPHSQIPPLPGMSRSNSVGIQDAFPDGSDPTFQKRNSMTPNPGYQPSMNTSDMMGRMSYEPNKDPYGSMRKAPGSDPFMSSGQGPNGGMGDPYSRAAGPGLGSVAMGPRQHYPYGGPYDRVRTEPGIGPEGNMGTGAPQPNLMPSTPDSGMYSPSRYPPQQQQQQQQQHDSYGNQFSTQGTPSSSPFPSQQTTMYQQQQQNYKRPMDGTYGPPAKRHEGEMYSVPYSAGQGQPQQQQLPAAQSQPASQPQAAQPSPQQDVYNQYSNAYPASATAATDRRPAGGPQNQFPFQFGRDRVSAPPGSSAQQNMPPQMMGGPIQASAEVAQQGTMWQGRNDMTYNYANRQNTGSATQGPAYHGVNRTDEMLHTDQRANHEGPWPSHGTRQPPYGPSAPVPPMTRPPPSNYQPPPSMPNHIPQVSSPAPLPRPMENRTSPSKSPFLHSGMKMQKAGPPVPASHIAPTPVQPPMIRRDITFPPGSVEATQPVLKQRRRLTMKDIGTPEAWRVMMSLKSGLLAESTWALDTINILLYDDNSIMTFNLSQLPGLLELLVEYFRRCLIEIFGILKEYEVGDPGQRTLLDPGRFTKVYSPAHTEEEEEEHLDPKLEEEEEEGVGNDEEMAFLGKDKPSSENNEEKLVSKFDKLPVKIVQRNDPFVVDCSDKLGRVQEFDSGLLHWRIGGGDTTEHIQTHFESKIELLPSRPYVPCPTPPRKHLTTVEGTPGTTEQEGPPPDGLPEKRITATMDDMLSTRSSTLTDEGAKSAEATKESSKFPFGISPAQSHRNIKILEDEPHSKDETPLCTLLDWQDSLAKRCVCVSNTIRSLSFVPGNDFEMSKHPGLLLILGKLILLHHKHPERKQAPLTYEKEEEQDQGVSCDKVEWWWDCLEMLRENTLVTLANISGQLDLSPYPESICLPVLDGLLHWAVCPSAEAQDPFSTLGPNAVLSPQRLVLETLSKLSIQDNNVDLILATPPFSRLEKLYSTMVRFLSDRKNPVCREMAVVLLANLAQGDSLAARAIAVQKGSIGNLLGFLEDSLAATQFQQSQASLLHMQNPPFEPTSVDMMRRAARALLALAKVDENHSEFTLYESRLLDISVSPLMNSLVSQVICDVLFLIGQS

B1: BRD9 (ncBAF subunit) (protein, UniProt Q3UQU0 1-596)
chain: MGKKHKKHKAEWRSSYEDYTDTPLEKPLKLVLKVGGSEVTELSGSGHDSSYYDDRSDHERERHREKKKKKKKKSEKEKHLDEEERRKRKEEKKRKREKEHCDSEGEADAFDPGKKVEVEPPPDRPVRACRTQPAENESTPIQRLLEHFLRQLQRKDPHGFFAFPVTDAIAPGYSMIIKHPMDFGTMKDKIVANEYKSVTEFKADFKLMCDNAMTYNRPDTVYYKLAKKILHAGFKMMSKAALLGSEDPAAEEPVPEVVPVQVETTKKSKKPSREVISCMFEPEGNACSLTDSTAEEHVLALVEHAADEARDRINRFLPGGKMGYLKKLGDGSLLYSVVNAPEPDADEEETHPVDLSSLSSKLLPGFTTLGFKDERRNKVTFLSSASTALSMQNNSVFGDLKSDEMELLYSAYGDETGVQCALSLQEFVKDAGSYSKKMVDDLLDQITGGDHSRMIFQLKQRRSIPMRPADEMKVGDPLGESGGPVLDFMSMKQYPDVSLDVSMLSSLGKVKKELDHEDSHLNLDETARLLQDLHEAQAERGGSRPSSNLSSLSTASEREHPPPGSPSRLSVGEQPDVAHDPYEFLQSPEPAAPAKN

Experiments:
[1] = biological target: BRG1, the ATPase subunit of the mSWI/SNF complex (untagged, wild-type mES cells) (mouse (endogenous in mES cells)) (UniProt Q3TKT4); test: co-IP; BRG1 immunoprecipitation from nuclear lysates of WT or Brg1-KI mES cells; antibody coupled to Dynabeads, 3 h at 4 °C; wash buffer 50 mM Tris pH 8.0, 150 mM NaCl, 1 mM EDTA, 10% glycerol, 0.5% Triton X-100; western blot
[2] = biological target: BRG1 with FKBP12-F36V-HA knock-in at the 3' end of Brg1 (Brg1-knock-in mES cells) (mouse (endogenous in mES cells)) (UniProt Q3TKT4); test: as above

Molecule	binding [1]	binding [2]
PBRM1 (PBAF subunit) (from UniProt Q8BSQ9 1-1634)	binds	binds
ARID1A (cBAF subunit) (from UniProt A2BH40 1-2283)	binds	binds
B1	binds	binds
